PubChem BioAssay AID504791 | Drosophila RNAi Screening Center – 2011

- Screen: 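Factors in Argonaute-based small RNA production and activity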 (primary screen)
- Cells: Drosophila S2-derived reporter cells
- Reagent: long dsRNA against Drosophila genes, about 150-250 ng dsRNA per well (siRNA assay); about 80-120 ng (miRNA assay)
- Time to read-out: about 5 days (siRNA assay); about 4 days (miRNA assay)
- Conditions: copper sulfate induction of reporters: 25 µM (siRNA assay); 200 mM stated (miRNA assay), 1-2 days before reading
- Measurement: 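Per-well ratio of Renilla over firefly light, expressed relative to that plate's average ratio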
- Call rule: 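First-pass picks had plate-scaled ratios over 1.5 for the siRNA assay, over 1.6 for the miRNA assay, or under 0.6; two distinct dsRNAs had to score alike on retest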
In all, the deposit lists about 23,000 reagents; below is a random part of those with a known target gene and a result. Of all reagents, 199 (0.86%) were called active. 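Plate-scaled ratios behind the calls are not deposited; printed light signals are raw; many rows marked increased or decreased are still called inactive.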 A number with no mark means an inactive call. A plus sign joins genes that one reagent is predicted to hit. Not stated in the record: the direction of the score.

The opening 2 entries as a preview:
| gene knocked down | DRSC id | stable siRNA reporter change | miRNA reporter change | stable assay Renilla, run 1 (luminescence) | stable assay firefly, run 1 (luminescence) |
| --- | --- | --- | --- | --- | --- |
| Obp58c (Odorant-binding protein 58c) | DRSC04166 | – | – | 6646 | 4.28e5 |
| CG5541 | DRSC19946 | – | – | 7826 | 4.91e5 |

Main list, from the start:
| gene knocked down | DRSC id | stable siRNA reporter change | miRNA reporter change | stable assay Renilla, run 1 (luminescence) | stable assay firefly, run 1 (luminescence) |
| --- | --- | --- | --- | --- | --- |
| Obp58c (Odorant-binding protein 58c) | DRSC04166 | – | – | 6646 | 4.28e5 |
| CG5541 | DRSC19946 | – | – | 7826 | 4.91e5 |
| Cyp4d8 (Cytochrome P450 4d8) | DRSC11131 | – | – | 7615 | 3.66e5 |
| CG12402 | DRSC14508 | – | – | 7868 | 4.29e5 |
| Scgbeta (Sarcoglycan beta) | DRSC15854 | – | – | 6800 | 4.46e5 |
| Msh6 | DRSC10759 | – | – | 6978 | 2.79e5 |
| CG42540 | DRSC08327 | – | – | 5732 | 2.77e5 |
| CG42540 | DRSC08328 | – | – | 6699 | 5.12e5 |
| CG42540 | DRSC08593 | – | – | 4655 | 2.01e5 |
| CG42540 | DRSC23011 | – | – | 2847 | 2.89e5 |
| RpL7-like + CG34164 | DRSC02836 | – | – | 5223 | 3.94e5 |
| RpL7-like + CG34164 | DRSC02837 | – | – | 7942 | 4.79e5 |
| CG15293 | DRSC01919 | – | – | 7418 | 4.18e5 |
| COX7AL (Cytochrome c oxidase subunit 7A-like) | DRSC15313 | – | – | 7538 | 5.26e5 |
| Ac78C (Adenylyl cyclase 78C) | DRSC11467 | – | – | 7250 | 4.80e5 |
| Ac78C (Adenylyl cyclase 78C) | DRSC11602 | – | – | 7030 | 4.01e5 |
| Ac78C (Adenylyl cyclase 78C) | DRSC11619 | – | – | 7471 | 4.73e5 |
| CG18278 + CG30059 | DRSC05418 | – | – | 5448 | 3.53e5 |
| Bmcp | DRSC10808 | – | – | 7868 | 4.08e5 |
| CheB42a (Chemosensory protein B 42a) | DRSC22881 | – | – | 3540 | 4.17e5 |
| Polr2K (RNA polymerase II, I and III subunit K) | DRSC05535 | – | – | 4172 | 3.40e5 |
| CG14300 | DRSC14779 | – | – | 7279 | 3.05e5 |
| mod(mdg4) + pre-mod(mdg4)-Z + pre-mod(mdg4)-T | DRSC13477 | – | – | 4708 | 3.14e5 |
| mod(mdg4) + pre-mod(mdg4)-Z + pre-mod(mdg4)-T | DRSC17001 | – | – | 7483 | 4.38e5 |
| CG8635 | DRSC07226 | – | – | 7843 | 4.43e5 |
| CG11106 | DRSC19381 | – | – | 5816 | 4.10e5 |
| sev (sevenless) | DRSC20372 | – | – | 5008 | 3.60e5 |
| GCS2beta (Glucosidase 2 beta subunit) | DRSC02960 | – | – | 4983 | 4.78e5 |
| can (cannonball) | DRSC10664 | – | – | 4492 | 3.62e5 |
| ChAT (Choline acetyltransferase) | DRSC13314 | – | – | 4024 | 3.84e5 |
| ChAT (Choline acetyltransferase) | DRSC16609 | – | – | 7610 | 3.07e5 |
| ChAT (Choline acetyltransferase) | DRSC22755 | – | – | 3652 | 3.34e5 |
| CG31265 | DRSC15745 | – | – | 7366 | 3.99e5 |
| CG13842 | DRSC14692 | – | – | 6522 | 3.21e5 |
| Gr22e (Gustatory receptor 22e) | DRSC20912 | – | – | 5320 | 4.26e5 |
| Lcp4 (Larval cuticle protein 4) | DRSC07458 | – | – | 6248 | 3.52e5 |
| Lcp4 (Larval cuticle protein 4) | DRSC25194 | – | reporter ratio raised past the hit cutoff (active) | – | – |
| Sgs3 (Salivary gland secretion 3) | DRSC11280 | – | – | 6727 | 3.81e5 |
| CG10031 | DRSC00286 | – | – | 7518 | 4.23e5 |
| Dad1 (Defender against apoptotic cell death 1) | DRSC02263 | – | – | 6675 | 4.89e5 |
| CG16922 (retired record) | DRSC19758 | – | – | 5086 | 3.19e5 |
| CG16922 (retired record) | DRSC23140 | – | – | 4671 | 3.05e5 |
| bab1 (bric a brac 1) | DRSC08379 | – | – | 4160 | 2.65e5 |
| bab1 (bric a brac 1) | DRSC08709 | – | – | 6767 | 5.23e5 |
| bab1 (bric a brac 1) | DRSC21882 | – | – | 8310 | 5.93e5 |
| Osi11 (Osiris 11) | DRSC12282 | – | – | 6431 | 4.99e5 |
| Gr59d (Gustatory receptor 59d) | DRSC22553 | – | – | 5036 | 4.70e5 |
| CG12056 | DRSC17796 | – | – | 7063 | 4.92e5 |
| mtTFB2 (mitochondrial transcription factor B2) | DRSC15519 | reporter ratio lowered past the hit cutoff | – | 6530 | 6.33e5 |
| sstn (stepping stone) | DRSC10753 | – | – | 7106 | 3.83e5 |
| sicily (severe impairment of CI with lengthened youth) | DRSC19704 | – | – | 5036 | 3.93e5 |
| CG4998 | DRSC10466 | – | – | 6963 | 3.11e5 |
| CG4998 | DRSC22911 | – | – | 2247 | 3.33e5 |
| Vha36-1 (Vacuolar H[+] ATPase 36kD subunit 1) | DRSC07098 | – | – | 9421 | 4.18e5 |
| vret (vreteno) | DRSC15640 | – | – | 8743 | 3.59e5 |
| Ir56b (Ionotropic receptor 56b) | DRSC06543 | – | – | 6959 | 3.37e5 |
| Ir56b (Ionotropic receptor 56b) | DRSC28758 | – | reporter ratio lowered past the hit cutoff | – | – |
| CG42397 | DRSC09147 | – | – | 4147 | 3.05e5 |
| Zasp66 (Z band alternatively spliced PDZ-motif protein 66) | DRSC08932 | – | – | 5899 | 2.96e5 |
| Zasp66 (Z band alternatively spliced PDZ-motif protein 66) | DRSC10631 | – | – | 6804 | 4.26e5 |
| Zasp66 (Z band alternatively spliced PDZ-motif protein 66) | DRSC10632 | – | – | 6850 | 4.93e5 |
| ru (roughoid) | DRSC08258 | – | – | 6946 | 3.53e5 |
| CG8379 | DRSC16414 | – | – | 7198 | 4.67e5 |
| CG14760 | DRSC06495 | – | – | 7030 | 3.41e5 |
| or (orange) | DRSC04329 | – | – | 6212 | 3.81e5 |
| Dpm1 (Dolichyl-phosphate mannosyltransferase subunit 1) | DRSC02018 | – | – | 7376 | 3.97e5 |
| fd3F + CG42499 (retired record) | DRSC18160 | – | – | 6674 | 4.66e5 |
| fd3F + CG42499 (retired record) | DRSC18161 | – | – | 6643 | 4.71e5 |
| CG5217 | DRSC15740 | – | – | 9567 | 4.47e5 |
| Crg-1 (Circadianly Regulated Gene) | DRSC22882 | – | – | 3735 | 4.48e5 |
| Cyp4e3 (Cytochrome P450 4e3) | DRSC03306 | – | – | 7423 | 3.53e5 |
| ND-B14.5B (NADH dehydrogenase (ubiquinone) B14.5 B subunit) | DRSC00346 | – | – | 7346 | 4.16e5 |
| mld (molting defective) | DRSC13681 | – | – | 4111 | 3.00e5 |
| mld (molting defective) | DRSC14622 | – | – | 6883 | 3.34e5 |
| mld (molting defective) | DRSC21771 | – | – | 8479 | 4.23e5 |
| CG8353 | DRSC03084 | – | – | 7319 | 3.50e5 |
| CG12084 | DRSC08247 | – | – | 10009 | 5.03e5 |
| CG12084 | DRSC26814 | – | reporter ratio lowered past the hit cutoff | – | – |
| Dso1 (Daisho1) | DRSC21815 | – | – | 8776 | 4.10e5 |
| CG9897 + asRNA:CR42742 | DRSC04595 | – | – | 6990 | 3.87e5 |
| Coa8 (Cytochrome c oxidase assembly factor 8) | DRSC17959 | – | – | 5752 | 3.08e5 |
| CG42326 | DRSC06483 | – | – | 6814 | 3.40e5 |
| CG42326 | DRSC06484 | – | – | 6426 | 2.67e5 |
